Test results from article PMC7862700.
Only a part is listed here, and it is no random draw. At the low end of the ranking the order means little.

target: T1, ERF (UniProt P50548); assay: DAPPL (digital affinity profiling via proximity ligation, sequencing); details: 10 mM Tris-HCl pH 7.5, 50 mM NaCl, 1 mM DTT, 4% glycerol, room temperature, 30 min; GST-TFs on glutathione beads, 16-mer random dsDNA library, 0.1% …; high values mean tight binding; double strand, one strand shown; scale: fold enrichment (6-mer frequency, TF over GST control)
T1 sequence: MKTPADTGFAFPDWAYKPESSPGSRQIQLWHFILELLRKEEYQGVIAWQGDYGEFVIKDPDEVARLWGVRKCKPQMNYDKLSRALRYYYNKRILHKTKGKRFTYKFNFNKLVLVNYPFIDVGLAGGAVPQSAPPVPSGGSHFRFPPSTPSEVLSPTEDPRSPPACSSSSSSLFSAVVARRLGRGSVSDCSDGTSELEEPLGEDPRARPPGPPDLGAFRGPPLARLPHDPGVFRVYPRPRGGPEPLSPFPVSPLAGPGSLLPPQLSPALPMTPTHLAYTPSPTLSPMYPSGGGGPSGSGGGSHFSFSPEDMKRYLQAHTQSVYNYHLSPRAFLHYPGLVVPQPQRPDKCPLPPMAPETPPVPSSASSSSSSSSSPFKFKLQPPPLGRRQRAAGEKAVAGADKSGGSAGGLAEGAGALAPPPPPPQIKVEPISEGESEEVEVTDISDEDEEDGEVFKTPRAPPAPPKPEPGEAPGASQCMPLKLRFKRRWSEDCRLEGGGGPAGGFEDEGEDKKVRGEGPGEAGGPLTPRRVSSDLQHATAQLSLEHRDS

Row | Sequence | binding signal
1 | GATCTA | 1.04
2 | GCCCTG | 0.896
3 | TCTGAG | 0.968
4 | TTTCGT | 1.21
5 | GATAGC | 1.15
6 | AGAAGA | 0.922
7 | ACACCA | 0.988
8 | GCGCCG | 0.876
9 | TAATGG | 1.17
10 | AAGGCT | 0.906
11 | TGGGCA | 0.942
12 | ACTGTA | 0.981
13 | GTGTTG | 0.965
14 | GTAATC | 1.08
15 | CCACAG | 0.988
16 | TTGGCA | 1.19
17 | GACCAA | 0.961

Row | Sequence | binding signal
18 | TGAAAG | 0.972
19 | CGCTGT | 1.12
20 | ATGCTG | 1.16
21 | GATGGA | 0.878
22 | GGTTCT | 0.932
23 | CGACGG | 0.965
24 | ACGCGC | 0.968
25 | TGCCGA | 0.963
26 | CGAAGT | 0.927
27 | CACCCT | 1.09
28 | AGGGTT | 0.944
29 | AAGGCA | 1.04
30 | GTACTG | 1.02
31 | CCAAGC | 0.994
32 | ATAGAC | 0.952
33 | TCGAAC | 1.07
34 | GGTATG | 0.922
